# Source: the supplement of paper PMC8728848
# Some of the results follow.
# Experiments:
# Experiment in all cases: glycan array binding signal (z-score within array); higher = stronger binding
# Settings in all cases: glycan notation: IUPAC condensed, linker removed
# [1] = target: Fuc(a1-2)Gal6S(b1-3)GlcNAc6S
# Procedure, shortened: (§1)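 Columns mapping to the same glycan were averaged after glycan names were converted to IUPAC-condensed notation. The data come from 3228 arrays in the Consortium for Functional Glycomics database, limited to those with an available protein sequence. Binding is reported as a within-array Z-score averaged across arrays of one protein sequence and across linkers.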
# [2] = target: Fuc(a1-2)Gal6S(b1-4)Glc
# Procedure, shortened: as §1
# [3] = target: Fuc(a1-2)Gal6S(b1-4)Glc6S
# Procedure, shortened: as §1
# [4] = target: Fuc(a1-2)[Gal(a1-3)]Gal
# Procedure, shortened: as §1
# [5] = target: Fuc(a1-2)[Gal(a1-3)]Gal(b1-3)GalNAc
# Procedure, shortened: as §1
# [6] = target: Fuc(a1-2)[Gal(a1-3)]Gal(b1-3)GalNAc(b1-3)Gal(a1-4)Gal(b1-4)Glc
# Procedure, shortened: as §1
# [7] = target: Fuc(a1-2)[Gal(a1-3)]Gal(b1-3)GlcNAc
# Procedure, shortened: as §1
# [8] = target: Fuc(a1-2)[Gal(a1-3)]Gal(b1-3)GlcNAc(b1-2)Man(a1-3)[Fuc(a1-2)[Gal(a1-3)]Gal(b1-3)GlcNAc(b1-2)Man(a1-6)]Man(b1-4)GlcNAc(b1-4)GlcNAc
# Procedure, shortened: as §1
# [9] = target: Fuc(a1-2)[Gal(a1-3)]Gal(b1-3)GlcNAc(b1-2)Man(a1-3)[Fuc(a1-2)[Gal(a1-3)]Gal(b1-3)GlcNAc(b1-2)Man(a1-6)]Man(b1-4)GlcNAc(b1-4)[Fuc(a1-6)]GlcNAc
# Procedure, shortened: as §1
# [10] = target: Fuc(a1-2)[Gal(a1-3)]Gal(b1-3)GlcNAc(b1-3)GalNAc
# Procedure, shortened: as §1
# [11] = target: Fuc(a1-2)[Gal(a1-3)]Gal(b1-3)GlcNAc(b1-6)GalNAc
# Procedure, shortened: as §1
# [12] = target: Fuc(a1-2)[Gal(a1-3)]Gal(b1-4)Glc
# Procedure, shortened: as §1
# [13] = target: Fuc(a1-2)[Gal(a1-3)]Gal(b1-4)GlcNAc
# Procedure, shortened: as §1
# [14] = target: Fuc(a1-2)[Gal(a1-3)]Gal(b1-4)GlcNAc(b1-2)Man
# Procedure, shortened: as §1
# [15] = target: Fuc(a1-2)[Gal(a1-3)]Gal(b1-4)GlcNAc(b1-2)Man(a1-3)[Fuc(a1-2)[Gal(a1-3)]Gal(b1-4)GlcNAc(b1-2)Man(a1-6)]Man(b1-4)GlcNAc(b1-4)GlcNAc
# Procedure, shortened: as §1
# [16] = target: Fuc(a1-2)[Gal(a1-3)]Gal(b1-4)GlcNAc(b1-2)Man(a1-3)[Fuc(a1-2)[Gal(a1-3)]Gal(b1-4)GlcNAc(b1-2)Man(a1-6)]Man(b1-4)GlcNAc(b1-4)[Fuc(a1-6)]GlcNAc
# Procedure, shortened: as §1
# [17] = target: Fuc(a1-2)[Gal(a1-3)]Gal(b1-4)GlcNAc(b1-3)GalNAc
# Procedure, shortened: as §1
# [18] = target: Fuc(a1-2)[Gal(a1-3)]Gal(b1-4)GlcNAc(b1-3)[Fuc(a1-2)[Gal(a1-3)]Gal(b1-4)GlcNAc(b1-6)]GalNAc
# Procedure, shortened: as §1
# [19] = target: Fuc(a1-2)[Gal(a1-3)]Gal(b1-4)GlcNAc(b1-6)GalNAc
# Procedure, shortened: as §1
# [20] = target: Fuc(a1-2)[Gal(a1-3)]Gal(b1-4)[Fuc(a1-3)]Glc
# Procedure, shortened: as §1
# [21] = target: Fuc(a1-2)[Gal(a1-3)]Gal(b1-4)[Fuc(a1-3)]GlcNAc
# Procedure, shortened: as §1
# [22] = target: Fuc(a1-2)[Gal(a1-3)]Gal(b1-4)[Fuc(a1-3)]GlcNAc(b1-3)GalNAc
# Procedure, shortened: as §1
# [23] = target: Fuc(a1-2)[Gal(a1-4)]Gal(b1-4)GlcNAc
# Procedure, shortened: as §1
# [24] = target: Fuc(a1-2)[GalNAc(a1-3)]Gal
# Procedure, shortened: as §1
# [25] = target: Fuc(a1-2)[GalNAc(a1-3)]Gal(b1-3)GalNAc(a1-3)[Fuc(a1-2)]Gal(b1-4)GlcNAc
# Procedure, shortened: as §1
# [26] = target: Fuc(a1-2)[GalNAc(a1-3)]Gal(b1-3)GalNAc(b1-3)Gal(a1-4)Gal(b1-4)Glc
# Procedure, shortened: as §1
# [27] = target: Fuc(a1-2)[GalNAc(a1-3)]Gal(b1-3)GlcNAc
# Procedure, shortened: as §1
# [28] = target: Fuc(a1-2)[GalNAc(a1-3)]Gal(b1-3)GlcNAc(b1-2)Man(a1-3)[Fuc(a1-2)[GalNAc(a1-3)]Gal(b1-3)GlcNAc(b1-2)Man(a1-6)]Man(b1-4)GlcNAc(b1-4)GlcNAc
# Procedure, shortened: as §1
# [29] = target: Fuc(a1-2)[GalNAc(a1-3)]Gal(b1-3)GlcNAc(b1-2)Man(a1-3)[Fuc(a1-2)[GalNAc(a1-3)]Gal(b1-3)GlcNAc(b1-2)Man(a1-6)]Man(b1-4)GlcNAc(b1-4)[Fuc(a1-6)]GlcNAc
# Procedure, shortened: as §1
# [30] = target: Fuc(a1-2)[GalNAc(a1-3)]Gal(b1-3)GlcNAc(b1-3)GalNAc
# Procedure, shortened: as §1
# [31] = target: Fuc(a1-2)[GalNAc(a1-3)]Gal(b1-3)GlcNAc(b1-6)GalNAc
# Procedure, shortened: as §1
# [32] = target: Fuc(a1-2)[GalNAc(a1-3)]Gal(b1-4)Glc
# Procedure, shortened: as §1
# [33] = target: Fuc(a1-2)[GalNAc(a1-3)]Gal(b1-4)GlcNAc
# Procedure, shortened: as §1
# [34] = target: Fuc(a1-2)[GalNAc(a1-3)]Gal(b1-4)GlcNAc(b1-2)Man
# Procedure, shortened: as §1
# [35] = target: Fuc(a1-2)[GalNAc(a1-3)]Gal(b1-4)GlcNAc(b1-2)Man(a1-3)[Fuc(a1-2)[GalNAc(a1-3)]Gal(b1-4)GlcNAc(b1-2)Man(a1-6)]Man(b1-4)GlcNAc(b1-4)GlcNAc
# Procedure, shortened: as §1
# [36] = target: Fuc(a1-2)[GalNAc(a1-3)]Gal(b1-4)GlcNAc(b1-2)Man(a1-3)[Fuc(a1-2)[GalNAc(a1-3)]Gal(b1-4)GlcNAc(b1-2)Man(a1-6)]Man(b1-4)GlcNAc(b1-4)[Fuc(a1-6)]GlcNAc
# Procedure, shortened: as §1
# [37] = target: Fuc(a1-2)[GalNAc(a1-3)]Gal(b1-4)GlcNAc(b1-3)Gal(b1-4)GlcNAc
# Procedure, shortened: as §1
# [38] = target: Fuc(a1-2)[GalNAc(a1-3)]Gal(b1-4)GlcNAc(b1-3)Gal(b1-4)GlcNAc(b1-3)Gal(b1-4)GlcNAc
# Procedure, shortened: as §1
# [39] = target: Fuc(a1-2)[GalNAc(a1-3)]Gal(b1-4)GlcNAc(b1-3)GalNAc
# Procedure, shortened: as §1
# [40] = target: Fuc(a1-2)[GalNAc(a1-3)]Gal(b1-4)GlcNAc(b1-3)[Fuc(a1-2)[GalNAc(a1-3)]Gal(b1-4)GlcNAc(b1-6)]GalNAc
# Procedure, shortened: as §1
# [41] = target: Fuc(a1-2)[GalNAc(a1-3)]Gal(b1-4)GlcNAc(b1-6)GalNAc
# Procedure, shortened: as §1
# [42] = target: Fuc(a1-2)[GalNAc(a1-3)]Gal(b1-4)[Fuc(a1-3)]GlcNAc
# Procedure, shortened: as §1
# [43] = target: Fuc(a1-2)[GalNAc(a1-3)]Gal(b1-4)[Fuc(a1-3)]GlcNAc(b1-3)GalNAc
# Procedure, shortened: as §1
# [44] = target: Fuc(a1-2)[GalNAc(a1-4)]Gal(b1-4)GlcNAc
# Procedure, shortened: as §1
# [45] = target: Fuc(a1-2)[GalNAc(b1-3)]Gal
# Procedure, shortened: as §1
binder,measurement,setting,value
"SAOUHSC 02783 (Staphylococcus aureus), Q5HD69 (protein) MIHSKKLTLGICLVLLIILIVGYVIMTKTNGRNAQIKDTFNQTLKLYPTKNLDDFYDKEGFRDQEFKKGDKGTWIVNSEMVIEPKGKDMETRGMVLYINRNTRTTKGYYFISEMTDDSNGRPKDDEKRYPVKMEHNKIIPTKPLPNDKLKKEIENFKFFVQYGNFKDINDYKDGDISYNPNVPSYSAKYQLNNDDYNVQQLRKRYDIPTKQAPKLLLKGDGDLKGSSVGSRSLEFTFVENKEENIYFTDSVQYTPSEDTRYESN",glycan array binding signal (z-score),[1],-0.229
same,glycan array binding signal (z-score),[2],-0.739
same,glycan array binding signal (z-score),[3],0.515
same,glycan array binding signal (z-score),[4],-0.353
same,glycan array binding signal (z-score),[5],0.42
same,glycan array binding signal (z-score),[6],-0.697
same,glycan array binding signal (z-score),[7],0.87
same,glycan array binding signal (z-score),[8],-0.458
same,glycan array binding signal (z-score),[9],1.34
same,glycan array binding signal (z-score),[10],1.58
same,glycan array binding signal (z-score),[11],-1.1
same,glycan array binding signal (z-score),[12],-0.235
same,glycan array binding signal (z-score),[13],-0.392
same,glycan array binding signal (z-score),[14],-1.04
same,glycan array binding signal (z-score),[15],0.768
same,glycan array binding signal (z-score),[16],-1.39
same,glycan array binding signal (z-score),[17],-0.117
same,glycan array binding signal (z-score),[18],1.11
same,glycan array binding signal (z-score),[19],-0.997
same,glycan array binding signal (z-score),[20],-0.221
same,glycan array binding signal (z-score),[21],0.669
same,glycan array binding signal (z-score),[22],-0.796
same,glycan array binding signal (z-score),[23],1.07
same,glycan array binding signal (z-score),[24],-0.035
same,glycan array binding signal (z-score),[25],-1.39
same,glycan array binding signal (z-score),[26],-1
same,glycan array binding signal (z-score),[27],-1.19
same,glycan array binding signal (z-score),[28],-0.629
same,glycan array binding signal (z-score),[29],-0.694
same,glycan array binding signal (z-score),[30],-0.882
same,glycan array binding signal (z-score),[31],0.779
same,glycan array binding signal (z-score),[32],-0.079
same,glycan array binding signal (z-score),[33],-0.774
same,glycan array binding signal (z-score),[34],-0.646
same,glycan array binding signal (z-score),[35],1.05
same,glycan array binding signal (z-score),[36],-0.573
same,glycan array binding signal (z-score),[37],-0.188
same,glycan array binding signal (z-score),[38],-0.515
same,glycan array binding signal (z-score),[39],0.249
same,glycan array binding signal (z-score),[40],-0.505
same,glycan array binding signal (z-score),[41],-0.494
same,glycan array binding signal (z-score),[42],0.512
same,glycan array binding signal (z-score),[43],-0.705
same,glycan array binding signal (z-score),[44],-1.89
same,glycan array binding signal (z-score),[45],1.08

# Quoted at random: 3 records from the list
binder,measurement,setting,value
"SAOUHSC 02783 (Staphylococcus aureus), Q5HD69 (protein) MIHSKKLTLGICLVLLIILIVGYVIMTKTNGRNAQIKDTFNQTLKLYPTKNLDDFYDKEGFRDQEFKKGDKGTWIVNSEMVIEPKGKDMETRGMVLYINRNTRTTKGYYFISEMTDDSNGRPKDDEKRYPVKMEHNKIIPTKPLPNDKLKKEIENFKFFVQYGNFKDINDYKDGDISYNPNVPSYSAKYQLNNDDYNVQQLRKRYDIPTKQAPKLLLKGDGDLKGSSVGSRSLEFTFVENKEENIYFTDSVQYTPSEDTRYESN",glycan array binding signal (z-score),[23],1.07
same,glycan array binding signal (z-score),[11],-1.1
same,glycan array binding signal (z-score),[12],-0.235
